Experimental data taken from PMC4828706.
Results are given in words; binding and its absence hold for the method and conditions named. Binding seen in cells or lysates may run through a third protein. Some binding calls cover weakened binding; strength is not graded here.

Sequences of proteins named here, by UniProt entry; tags and fusion partners are left off. Residues count along the entry.
UniProt Q8BWG9: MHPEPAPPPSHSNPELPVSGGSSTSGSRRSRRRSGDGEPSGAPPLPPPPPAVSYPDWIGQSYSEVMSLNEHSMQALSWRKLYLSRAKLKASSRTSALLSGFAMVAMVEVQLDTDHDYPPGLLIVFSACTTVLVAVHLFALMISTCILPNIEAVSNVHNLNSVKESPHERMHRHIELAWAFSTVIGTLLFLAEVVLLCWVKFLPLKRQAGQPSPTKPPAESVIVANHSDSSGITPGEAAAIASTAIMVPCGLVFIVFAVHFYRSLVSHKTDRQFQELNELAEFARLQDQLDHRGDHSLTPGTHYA
UniProt Q96D31: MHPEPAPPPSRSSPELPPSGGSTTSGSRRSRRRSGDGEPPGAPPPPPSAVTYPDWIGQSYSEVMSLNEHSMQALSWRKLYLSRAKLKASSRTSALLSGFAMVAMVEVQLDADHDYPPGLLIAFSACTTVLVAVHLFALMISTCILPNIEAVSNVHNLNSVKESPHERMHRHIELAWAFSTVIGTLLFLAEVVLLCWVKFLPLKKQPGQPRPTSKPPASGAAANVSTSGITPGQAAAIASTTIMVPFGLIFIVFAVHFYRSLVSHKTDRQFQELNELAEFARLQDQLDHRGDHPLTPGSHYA
UniProt Q13586, residues 23-685: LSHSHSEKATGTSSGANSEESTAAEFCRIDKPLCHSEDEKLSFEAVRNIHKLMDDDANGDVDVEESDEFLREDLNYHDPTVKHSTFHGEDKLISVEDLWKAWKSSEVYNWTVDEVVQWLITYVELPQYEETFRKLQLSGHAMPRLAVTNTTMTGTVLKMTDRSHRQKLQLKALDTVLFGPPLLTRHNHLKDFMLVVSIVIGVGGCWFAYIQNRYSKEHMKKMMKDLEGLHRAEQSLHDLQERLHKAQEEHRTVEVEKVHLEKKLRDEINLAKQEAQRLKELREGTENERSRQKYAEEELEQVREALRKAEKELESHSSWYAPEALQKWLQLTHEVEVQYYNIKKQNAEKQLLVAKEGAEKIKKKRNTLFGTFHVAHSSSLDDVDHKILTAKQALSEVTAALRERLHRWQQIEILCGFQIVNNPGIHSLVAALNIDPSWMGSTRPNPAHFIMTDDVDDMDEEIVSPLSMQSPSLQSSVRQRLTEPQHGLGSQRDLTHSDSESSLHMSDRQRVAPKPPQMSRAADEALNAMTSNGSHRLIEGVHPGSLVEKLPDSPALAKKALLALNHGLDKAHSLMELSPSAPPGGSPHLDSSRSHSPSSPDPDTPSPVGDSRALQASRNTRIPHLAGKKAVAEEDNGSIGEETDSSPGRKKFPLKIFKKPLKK

Tests used:
[1] = molecular target: T1, SARAF (endogenous in NG115-401L cells) (not stated (endogenous in NG115-401L)) (UniProt Q8R3Q0); assay: co-IP; endogenous proteins in whole cell lysates of STIM1-deficient NG115-401L cells; before and 30, 60, 120 s after TG 1 μM, 300 μM extracellular Ca2+
T1 sequence: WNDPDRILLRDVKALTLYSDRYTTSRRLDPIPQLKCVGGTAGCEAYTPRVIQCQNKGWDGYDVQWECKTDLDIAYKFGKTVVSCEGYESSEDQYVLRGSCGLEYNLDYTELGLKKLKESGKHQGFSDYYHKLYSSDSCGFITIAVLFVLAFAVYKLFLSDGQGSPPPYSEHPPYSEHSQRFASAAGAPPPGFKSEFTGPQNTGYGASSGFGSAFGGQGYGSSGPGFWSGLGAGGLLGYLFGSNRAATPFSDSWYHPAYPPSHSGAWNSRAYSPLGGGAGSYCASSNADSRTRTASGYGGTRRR

[2] = molecular target: T2, SOCE-associated regulatory factor (SARAF) (human (endogenous in MEG-01)) (UniProt Q96BY9); assay: proximity ligation; Duolink in situ PLA on fixed, permeabilised MEG-01 cells; rabbit anti-SARAF with mouse anti-STIM1 or mouse anti-Orai1; resting cells and TG 1 μM for 30 or 120 s
T2 sequence: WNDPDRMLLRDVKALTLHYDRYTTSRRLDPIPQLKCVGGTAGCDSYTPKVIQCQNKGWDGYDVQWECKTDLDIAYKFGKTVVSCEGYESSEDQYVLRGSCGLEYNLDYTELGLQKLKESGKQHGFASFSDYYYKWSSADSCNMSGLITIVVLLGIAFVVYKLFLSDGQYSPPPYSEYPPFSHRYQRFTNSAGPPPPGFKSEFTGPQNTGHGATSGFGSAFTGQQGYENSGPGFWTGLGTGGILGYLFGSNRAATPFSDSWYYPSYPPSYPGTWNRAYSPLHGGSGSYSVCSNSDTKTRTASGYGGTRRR

[3] = molecular target: T2, SOCE-associated regulatory factor (SARAF) (human (endogenous in MEG-01)); assay: co-IP; endogenous proteins in MEG-01 whole cell lysates (NP-40 buffer, pH 8), protein A-agarose overnight at 4 °C; IP anti-STIM1 and blot anti-Orai1 (Fig. 1d), IP with the indicated antibody and blots anti-Orai1, anti-SARAF, anti-STIM1 (Fig. 4a); resting cells and cells treated with TG 1 μM (30, 60, 120 s or 3 min); also cells overexpressing SARAF or with siSARAF

## Orai1 (endogenous in NG115-401L cells) (from UniProt Q8BWG9 1-304)
[1]
  binding: binds

## Orai1 (from UniProt Q96D31 1-301)
[2]
  binding: binds
[3]
  binding: binds

## STIM1 (from UniProt Q13586 23-685)
[2]
  binding: binds
[3]
  binding: binds
